Test results reported in paper PMC5657617.
No constants are given. Whether binding was seen depends on the method and setting. Sequences can lack the tags named with a protein.

By UniProt entry, the sequences of proteins in these tests, tags left out. Where a name states a change or a piece, a line headed by the entry shows the natural chain unless it says otherwise. Chains listed by the source or under a name are the forms on record and can include a tag or linker. Residues count along the entry.
GST-PSIG1^1-606 (Q9FMM3, residues 1-606): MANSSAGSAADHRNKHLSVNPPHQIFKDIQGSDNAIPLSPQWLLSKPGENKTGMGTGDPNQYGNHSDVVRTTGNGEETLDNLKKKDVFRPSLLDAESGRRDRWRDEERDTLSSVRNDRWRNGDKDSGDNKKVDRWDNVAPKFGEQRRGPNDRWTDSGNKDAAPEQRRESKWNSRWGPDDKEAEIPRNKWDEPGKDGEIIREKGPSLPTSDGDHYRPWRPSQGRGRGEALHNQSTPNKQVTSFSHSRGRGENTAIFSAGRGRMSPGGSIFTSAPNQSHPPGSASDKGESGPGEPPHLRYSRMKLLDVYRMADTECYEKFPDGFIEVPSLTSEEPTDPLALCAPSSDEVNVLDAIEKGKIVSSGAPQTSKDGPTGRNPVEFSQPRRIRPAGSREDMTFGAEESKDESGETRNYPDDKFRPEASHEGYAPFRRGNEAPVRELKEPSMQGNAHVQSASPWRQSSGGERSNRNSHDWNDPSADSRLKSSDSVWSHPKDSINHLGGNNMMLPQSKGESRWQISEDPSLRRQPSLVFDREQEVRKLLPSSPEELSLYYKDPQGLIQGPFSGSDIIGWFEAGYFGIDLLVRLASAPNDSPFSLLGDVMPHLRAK
GST-PSIG1^(1-606 W570A/Y575A) (Q9FMM3, form named): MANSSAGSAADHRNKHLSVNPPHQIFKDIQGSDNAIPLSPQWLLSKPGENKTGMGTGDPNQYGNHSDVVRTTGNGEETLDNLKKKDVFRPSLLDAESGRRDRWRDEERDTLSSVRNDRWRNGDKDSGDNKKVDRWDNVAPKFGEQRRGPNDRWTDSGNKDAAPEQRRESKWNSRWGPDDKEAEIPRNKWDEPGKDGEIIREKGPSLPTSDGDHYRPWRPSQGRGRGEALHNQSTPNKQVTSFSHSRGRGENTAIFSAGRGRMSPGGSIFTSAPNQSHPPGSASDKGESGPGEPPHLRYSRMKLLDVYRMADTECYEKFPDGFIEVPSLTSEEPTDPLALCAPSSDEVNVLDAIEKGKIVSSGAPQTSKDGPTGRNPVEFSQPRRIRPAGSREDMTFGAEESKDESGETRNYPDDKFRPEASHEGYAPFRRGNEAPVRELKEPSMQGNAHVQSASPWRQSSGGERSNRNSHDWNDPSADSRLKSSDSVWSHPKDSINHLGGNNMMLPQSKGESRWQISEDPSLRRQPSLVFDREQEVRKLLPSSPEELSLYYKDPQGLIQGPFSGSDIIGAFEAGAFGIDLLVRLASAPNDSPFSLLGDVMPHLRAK
GST-PSIG1^(1-606 Y575A) (Q9FMM3, form named): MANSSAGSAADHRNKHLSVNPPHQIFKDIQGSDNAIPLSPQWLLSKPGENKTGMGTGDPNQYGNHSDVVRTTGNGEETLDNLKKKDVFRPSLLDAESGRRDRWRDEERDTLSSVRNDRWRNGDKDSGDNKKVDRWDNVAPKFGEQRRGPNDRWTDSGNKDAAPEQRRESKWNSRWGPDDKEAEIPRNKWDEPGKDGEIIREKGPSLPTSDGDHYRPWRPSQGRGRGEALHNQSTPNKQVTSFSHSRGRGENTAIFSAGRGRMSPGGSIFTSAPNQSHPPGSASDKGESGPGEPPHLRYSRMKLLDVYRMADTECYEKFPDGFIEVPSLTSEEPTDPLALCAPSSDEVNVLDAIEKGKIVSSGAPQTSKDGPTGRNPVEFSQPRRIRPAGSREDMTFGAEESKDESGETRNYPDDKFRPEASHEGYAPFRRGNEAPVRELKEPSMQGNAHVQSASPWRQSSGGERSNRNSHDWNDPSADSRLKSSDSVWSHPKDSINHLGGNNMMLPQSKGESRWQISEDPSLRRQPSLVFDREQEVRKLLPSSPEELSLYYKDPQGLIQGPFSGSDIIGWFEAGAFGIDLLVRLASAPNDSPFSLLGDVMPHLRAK

B1: HisMBP-SMG7 (protein, UniProt A9QM73 1-1059)
chain: MMTLQMDKTTASSSWERAKSIYDEIAELANKRQKAGNPPDPNLLQLLREKYEAIILESHTFSEQHNIEIPLWQLHYKRIEYFRLHINRVLASSTSTAAQNVKGPSKAEQIAQLKLQFRTFLSEATGFYHDMILKIRSKYGLPLGSFSEDQQSQNLSDKDGKELAEVQKALKSCHRCLIYLGDLARYKGMYAEGDSRSRQYASASSYYLQAASLWPASGNPHHQLAIVASYSRDEFVTTYRYFRSLAVEYPFPTARDNLIVAFDKNRQSYEKLFVPSKDSSKRLTGKGRGKGADISLKDATLVAGPEKDKVTIANEMLKAFSIRFVHLNGILFTRTSLETFFDVLASTSSSLREVISLGSAKELTLGIDTSDSALFIVRVVTMLIFSVHNSKKETEGQSYAEIVQRVEPARNSLTASFELLGLVIEKCVQLGDPSSSYFLPGVLVFVEWLACCPDIALGSDPDDRQTAVRNSFWNQFVVFFNQVLSLGPTFIDDVEDETCFSNMSLYDERETENRLALWEDYELRGFLPLLPAQTILNFSRKHSFGTEGPKEKKARIKRIFAAGKALTSVIKVDQNHVYFDSKKKKFLVGVKPADDFLDSHSSPPKACNALQDNQVMIDHNSPIMQLDQQIYMGEEDDDDEVIVFKPLVTEKRKEASDQIYVPSGGFRKSDQVTTMGDFKALSGSDVAFHENQILQARGNASIQVPASVGANLLGPLQPSTQSQAMHMQQVQTQVQVPASVGANLLGLLLTSTQSQAMHMQQVQTQAVNPQPAQSLAASRLQPIQSQVAQPLPSRVVHFQQTQAQVSHVSPAHSQSTSFGGGSKWSPEEAASLASSLSGFAQLGNGHVMRNEMQGNHGVSYYPAHSLPVHQSYNGNGMGGMPYSQSRTPEAVFPPKIDPVLSSGVVADGLGVQSSLAKKNPISRAFRHLGPPPGFNSVPAKLQKEPAPGSELSGNNHLPVDDYSWLDGYQAQSSRGVGLNSSLNYATSGKPEHLGSTGNGLNGPANFPFPGKQVPTSQVQADFPYFQNPQKDNFVDKNHQSTQLPEQYQGQSTWSSRHFV
B2: HisMBP-SMG7^G933A (protein, UniProt A9QM73 1-1059)
chain: MMTLQMDKTTASSSWERAKSIYDEIAELANKRQKAGNPPDPNLLQLLREKYEAIILESHTFSEQHNIEIPLWQLHYKRIEYFRLHINRVLASSTSTAAQNVKGPSKAEQIAQLKLQFRTFLSEATGFYHDMILKIRSKYGLPLGSFSEDQQSQNLSDKDGKELAEVQKALKSCHRCLIYLGDLARYKGMYAEGDSRSRQYASASSYYLQAASLWPASGNPHHQLAIVASYSRDEFVTTYRYFRSLAVEYPFPTARDNLIVAFDKNRQSYEKLFVPSKDSSKRLTGKGRGKGADISLKDATLVAGPEKDKVTIANEMLKAFSIRFVHLNGILFTRTSLETFFDVLASTSSSLREVISLGSAKELTLGIDTSDSALFIVRVVTMLIFSVHNSKKETEGQSYAEIVQRVEPARNSLTASFELLGLVIEKCVQLGDPSSSYFLPGVLVFVEWLACCPDIALGSDPDDRQTAVRNSFWNQFVVFFNQVLSLGPTFIDDVEDETCFSNMSLYDERETENRLALWEDYELRGFLPLLPAQTILNFSRKHSFGTEGPKEKKARIKRIFAAGKALTSVIKVDQNHVYFDSKKKKFLVGVKPADDFLDSHSSPPKACNALQDNQVMIDHNSPIMQLDQQIYMGEEDDDDEVIVFKPLVTEKRKEASDQIYVPSGGFRKSDQVTTMGDFKALSGSDVAFHENQILQARGNASIQVPASVGANLLGPLQPSTQSQAMHMQQVQTQVQVPASVGANLLGLLLTSTQSQAMHMQQVQTQAVNPQPAQSLAASRLQPIQSQVAQPLPSRVVHFQQTQAQVSHVSPAHSQSTSFGGGSKWSPEEAASLASSLSGFAQLGNGHVMRNEMQGNHGVSYYPAHSLPVHQSYNGNGMGGMPYSQSRTPEAVFPPKIDPVLSSGVVADGLGVQSSLAKKNPISRAFRHLGPPPAFNSVPAKLQKEPAPGSELSGNNHLPVDDYSWLDGYQAQSSRGVGLNSSLNYATSGKPEHLGSTGNGLNGPANFPFPGKQVPTSQVQADFPYFQNPQKDNFVDKNHQSTQLPEQYQGQSTWSSRHFV

What was measured:
Assay in all cases: pull-down; GST-PSIG1 proteins and HisMBP-SMG7 proteins mixed in 50 mM Tris-HCl pH 7.5, 150 mM NaCl, 1 mM DTT, 0.1% Triton X-100; Glutathione-Sepharose beads, 2 h at 4°C; washed three times with 300 mM NaCl buffer; detected by anti-His or anti-GST immunoblot or CBB; both purified
[1] = target: GST-PSIG1^(1-606 W570A/Y575A) (Arabidopsis thaliana) (UniProt Q9FMM3)
[2] = target: GST-PSIG1^(1-606 Y575A) (Arabidopsis thaliana) (UniProt Q9FMM3)
[3] = target: GST-PSIG1^1-606 (Arabidopsis thaliana) (UniProt Q9FMM3)

Binder | binding [1] | binding [2] | binding [3]
B1 | no binding | no binding | –
B2 | – | – | no binding
